In the supplement of paper PMC9015667:
Structures can show the parent of a compound that is named as a salt. Some of the results follow. Single values are uncertain, as repeats are few or missing.

What follows are compounds tested on M249R (matched melanoma line resistant to BRAF inhibitors) (assay: reduction in cell viability relative to untreated/vehicle; higher = more growth inhibition). Conditions: 200 nM; 72 h.

| SMILES | reduction in cell viability [%] |
| --- | --- |
| CC[C@H](c1ccc(O)cc1)[C@@H](CC)c1ccc(O)cc1 [Hexestrol] | < 0 |
| CN(c1nccc(=O)[nH]1)C1CCN(c2nc3ccccc3n2Cc2ccc(F)cc2)CC1 [Mizolastine] | < 0 |
| COc1cc2nccc(Oc3ccc(NC(=O)Nc4cc(C)on4)c(Cl)c3)c2cc1OC [Tivozanib] | < 0 |
| COc1cc2nc(N3CCN(C(=O)c4ccco4)CC3)nc(N)c2cc1OC [Prazosin hydrochloride] | < 0 |
| CC(C)c1ccc(Cn2ccc3c4c(N)nc(NC5CC5)nc4ccc32)cc1 | 43.1 |
| COc1nccc(-c2c(-c3ccc(F)cc3)ncn2C2CCNCC2)n1 | < 0 |
| COc1nc(C)cnc1NS(=O)(=O)c1cccnc1-c1ccc(-c2nnco2)cc1 [Zibotentan] | < 0 |
| CCOC(=O)Nc1ccc(NCc2ccc(F)cc2)nc1N [Flupirtine maleate] | < 0 |
| O=C(NCC1CCCCN1)c1cc(OCC(F)(F)F)ccc1OCC(F)(F)F (centres undefined) [Flecainide] | < 0 |
| CC(C(=O)O)c1cccc(C(=O)c2ccccc2)c1 (centres undefined) [Ketoprofen] | < 0 |
| CCc1cnn2c(NCc3ccc[n+]([O-])c3)cc(N3CCCC[C@H]3CCO)nc12 | 78.8 |
| O=C(/C=C/c1cccnc1)NCCCCC1CCN(C(=O)c2ccccc2)CC1 [FK866 (APO866, Daporinad)] | 72.6 |
| CC(C)NCC(O)COc1ccc(CCOCC2CC2)cc1 (centres undefined) [Betaxolol] | < 0 |
| Cc1cc(C(C)Nc2ccccc2)c2nc(N3CCOCC3)cc(=O)n2c1 (centres undefined) | < 0 |
| COc1cc([C@@H]2c3cc4c(cc3[C@@H](O[C@@H]3O[C@@H]5CO[C@@H](C)O[C@H]5[C@H](O)[C@H]3O)[C@H]3COC(=O)[C@H]23)OCO4)cc(OC)c1O [Etoposide] | 22.6 |
| NS(=O)(=O)OC[C@@H]1C[C@@H](n2ccc3c(N[C@H]4CCc5ccccc54)ncnc32)C[C@@H]1O | 15.7 |
| OC(CCN1CCCCC1)(c1ccccc1)C1CC2C=CC1C2 (centres undefined) [Biperiden] | < 0 |

| SMILES | reduction in cell viability [%] |
| --- | --- |
| OC[C@H]1O[C@@H](n2cnc3c2N=CNC[C@H]3O)C[C@@H]1O [Pentostatin] | < 0 |
| CC1(C)O[C@@H]2C[C@H]3[C@@H]4C[C@H](F)C5=CC(=O)C=C[C@]5(C)[C@H]4[C@@H](O)C[C@]3(C)[C@]2(C(=O)CO)O1 [Flunisolide] | < 0 |
| COc1cc2ncnc(Nc3ccc(F)c(Cl)c3)c2cc1NC(=O)/C=C/CN1CCCCC1 [Dacomitinib] | < 0 |
| COc1ccc(F)c(F)c1C(=O)c1cnc(NC2CCN(S(C)(=O)=O)CC2)nc1N | 4.18 |
| CC(C)C[C@@H](N)[C@H](O)C(=O)N[C@H](C(=O)N[C@H](C(=O)N[C@@H](CC(=O)O)C(=O)O)C(C)C)C(C)C [Amastatin] | < 0 |
| Nc1cc(C(F)(F)F)c(-c2cc(N3CCOCC3)nc(N3CCOCC3)n2)cn1 [BKM120 (NVP-BKM120, Buparlisib)] | 10.9 |
| C[C@H](CCC(=O)O)[C@H]1CC[C@H]2[C@@H]3[C@H](O)C[C@@H]4C[C@H](O)CC[C@]4(C)[C@H]3CC[C@]12C [Chenodeoxycholic acid] | < 0 |
| CN(C)[C@@H]1C(O)=C(C(N)=O)C(=O)[C@@]2(O)C(O)=C3C(=O)c4c(O)cccc4[C@@](C)(O)[C@H]3C[C@@H]12 [Tetracycline hydrochloride] | < 0 |
| Cc1cc(Nc2nc(N[C@@H](C)c3ccc(F)cc3)c(C#N)cc2F)n[nH]1 | 16.3 |
| CCN(CC)CCOc1ccc(Nc2ncc3cc(-c4c(Cl)cccc4Cl)c(=O)n(C)c3n2)cc1 | 61.3 |
| Cc1cc(C(C)(C)C)cc(C)c1CC1=NCCN1 [Xylometazoline hydrochloride] | < 0 |
| CCn1cc(C(=O)O)c(=O)c2cc(F)c(N3CCNC(C)C3)c(F)c21 (centres undefined) [Lomefloxacin hydrochloride] | < 0 |
| C[C@]12CCC3=C4CCC(=O)C=C4CC[C@H]3[C@@H]1CC[C@@]2(O)CC#N [Dienogest] | < 0 |
| CN(C)CCCN1c2ccccc2CCc2ccc(Cl)cc21 [Clomipramine] | < 0 |
| O=C(NCCCCN1CCOCC1)c1cc2ccccc2o1 | < 0 |
| Cc1ccc(S(=O)(=O)Nc2cc(Cl)ccc2C(=O)Nc2nc(-c3ccccc3)cs2)cc1 | < 0 |
| C[C@@H](Oc1cc(-c2cnn(C3CCNCC3)c2)cnc1N)c1c(Cl)ccc(F)c1Cl | < 0 |

Ordered by SMILES length (falling): 3 of the compounds above

| SMILES | reduction in cell viability [%] |
| --- | --- |
| CCN(CC)CCOc1ccc(Nc2ncc3cc(-c4c(Cl)cccc4Cl)c(=O)n(C)c3n2)cc1 | 61.3 |
| C[C@@H](Oc1cc(-c2cnn(C3CCNCC3)c2)cnc1N)c1c(Cl)ccc(F)c1Cl | < 0 |
| Nc1cc(C(F)(F)F)c(-c2cc(N3CCOCC3)nc(N3CCOCC3)n2)cn1 [BKM120 (NVP-BKM120, Buparlisib)] | 10.9 |
